Measured values as given in the supplement of paper PMC10849652.
This is one part of the list.

By UniProt entry, the sequences of proteins in these tests, tags left out. Where a name states a change or a piece, a line headed by the entry shows the natural chain unless it says otherwise.
UniProt P11169: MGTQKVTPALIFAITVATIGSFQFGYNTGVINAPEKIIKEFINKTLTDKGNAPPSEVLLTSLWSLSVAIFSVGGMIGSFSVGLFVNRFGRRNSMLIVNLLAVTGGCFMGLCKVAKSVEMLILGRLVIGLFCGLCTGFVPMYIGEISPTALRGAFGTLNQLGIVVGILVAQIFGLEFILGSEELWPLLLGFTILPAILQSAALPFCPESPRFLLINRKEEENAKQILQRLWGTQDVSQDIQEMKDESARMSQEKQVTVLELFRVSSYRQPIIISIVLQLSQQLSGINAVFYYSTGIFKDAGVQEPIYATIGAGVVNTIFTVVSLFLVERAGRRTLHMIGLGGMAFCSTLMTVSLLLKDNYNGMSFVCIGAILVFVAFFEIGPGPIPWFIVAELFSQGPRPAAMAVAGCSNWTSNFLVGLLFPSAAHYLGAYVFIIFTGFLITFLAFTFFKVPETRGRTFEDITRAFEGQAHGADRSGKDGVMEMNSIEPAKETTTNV
UniProt O14975, whole entry, looked up: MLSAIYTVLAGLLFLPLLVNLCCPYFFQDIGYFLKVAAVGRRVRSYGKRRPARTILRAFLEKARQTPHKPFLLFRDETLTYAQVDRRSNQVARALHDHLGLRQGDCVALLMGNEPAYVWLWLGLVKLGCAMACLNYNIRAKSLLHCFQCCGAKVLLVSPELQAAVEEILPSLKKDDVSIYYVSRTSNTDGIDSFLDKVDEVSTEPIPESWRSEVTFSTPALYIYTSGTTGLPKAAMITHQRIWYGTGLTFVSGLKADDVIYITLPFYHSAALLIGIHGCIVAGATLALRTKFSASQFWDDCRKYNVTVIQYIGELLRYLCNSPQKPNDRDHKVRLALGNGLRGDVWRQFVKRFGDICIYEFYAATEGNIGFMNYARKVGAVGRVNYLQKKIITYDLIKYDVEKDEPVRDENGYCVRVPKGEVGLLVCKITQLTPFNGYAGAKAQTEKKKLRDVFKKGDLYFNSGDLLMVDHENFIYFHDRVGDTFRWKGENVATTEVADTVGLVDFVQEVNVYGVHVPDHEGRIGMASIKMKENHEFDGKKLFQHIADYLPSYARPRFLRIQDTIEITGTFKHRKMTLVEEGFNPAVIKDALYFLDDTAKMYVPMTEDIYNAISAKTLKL
UniProt Q9BRY0: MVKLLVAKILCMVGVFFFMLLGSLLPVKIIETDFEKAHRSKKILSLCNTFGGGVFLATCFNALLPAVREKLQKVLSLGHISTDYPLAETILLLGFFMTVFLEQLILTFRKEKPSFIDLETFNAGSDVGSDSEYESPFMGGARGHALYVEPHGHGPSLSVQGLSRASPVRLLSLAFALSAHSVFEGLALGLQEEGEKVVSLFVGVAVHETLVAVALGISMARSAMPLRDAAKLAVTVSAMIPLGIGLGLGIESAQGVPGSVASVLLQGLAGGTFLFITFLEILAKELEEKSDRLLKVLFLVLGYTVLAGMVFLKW
UniProt Q96QD8: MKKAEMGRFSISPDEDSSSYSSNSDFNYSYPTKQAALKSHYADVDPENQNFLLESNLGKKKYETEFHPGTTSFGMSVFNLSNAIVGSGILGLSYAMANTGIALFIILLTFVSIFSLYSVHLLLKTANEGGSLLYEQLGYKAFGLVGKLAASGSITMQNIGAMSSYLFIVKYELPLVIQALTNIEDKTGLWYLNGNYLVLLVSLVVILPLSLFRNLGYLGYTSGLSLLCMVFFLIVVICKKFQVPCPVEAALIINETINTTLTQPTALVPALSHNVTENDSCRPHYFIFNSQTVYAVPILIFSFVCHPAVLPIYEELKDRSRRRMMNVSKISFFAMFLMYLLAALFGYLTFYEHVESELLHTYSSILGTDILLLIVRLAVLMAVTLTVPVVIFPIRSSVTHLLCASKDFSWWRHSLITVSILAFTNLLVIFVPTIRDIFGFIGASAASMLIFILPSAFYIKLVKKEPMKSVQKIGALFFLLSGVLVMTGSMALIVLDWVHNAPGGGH
UniProt O43808: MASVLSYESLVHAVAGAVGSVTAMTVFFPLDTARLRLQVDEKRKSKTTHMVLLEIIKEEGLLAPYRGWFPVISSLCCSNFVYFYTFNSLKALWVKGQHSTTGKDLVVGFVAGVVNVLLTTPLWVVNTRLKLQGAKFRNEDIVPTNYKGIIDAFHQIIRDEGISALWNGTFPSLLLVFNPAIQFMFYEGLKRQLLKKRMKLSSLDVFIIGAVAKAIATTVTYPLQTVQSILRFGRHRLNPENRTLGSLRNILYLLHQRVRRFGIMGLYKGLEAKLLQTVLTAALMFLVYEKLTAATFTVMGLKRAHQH
UniProt Q9UBX3: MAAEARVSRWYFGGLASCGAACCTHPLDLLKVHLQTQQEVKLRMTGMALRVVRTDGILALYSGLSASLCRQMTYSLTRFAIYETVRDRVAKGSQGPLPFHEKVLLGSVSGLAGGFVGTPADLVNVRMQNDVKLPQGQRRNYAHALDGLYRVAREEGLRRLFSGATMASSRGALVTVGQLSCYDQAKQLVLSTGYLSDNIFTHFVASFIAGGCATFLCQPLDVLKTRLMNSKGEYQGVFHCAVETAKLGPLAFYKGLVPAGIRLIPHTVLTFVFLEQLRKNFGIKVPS
UniProt L0R6Q1: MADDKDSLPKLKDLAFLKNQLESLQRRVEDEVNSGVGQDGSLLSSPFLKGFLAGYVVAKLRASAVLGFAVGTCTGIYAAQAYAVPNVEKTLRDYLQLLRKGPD
UniProt Q9Y2D2: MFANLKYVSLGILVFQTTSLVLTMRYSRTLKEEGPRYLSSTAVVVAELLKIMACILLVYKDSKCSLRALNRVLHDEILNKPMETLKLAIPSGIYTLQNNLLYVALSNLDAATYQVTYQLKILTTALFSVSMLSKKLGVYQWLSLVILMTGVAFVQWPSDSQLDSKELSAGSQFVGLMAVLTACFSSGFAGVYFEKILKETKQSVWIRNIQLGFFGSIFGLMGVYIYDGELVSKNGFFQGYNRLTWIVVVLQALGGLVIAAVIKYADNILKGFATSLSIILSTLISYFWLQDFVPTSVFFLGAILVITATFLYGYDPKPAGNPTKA
UniProt O14745: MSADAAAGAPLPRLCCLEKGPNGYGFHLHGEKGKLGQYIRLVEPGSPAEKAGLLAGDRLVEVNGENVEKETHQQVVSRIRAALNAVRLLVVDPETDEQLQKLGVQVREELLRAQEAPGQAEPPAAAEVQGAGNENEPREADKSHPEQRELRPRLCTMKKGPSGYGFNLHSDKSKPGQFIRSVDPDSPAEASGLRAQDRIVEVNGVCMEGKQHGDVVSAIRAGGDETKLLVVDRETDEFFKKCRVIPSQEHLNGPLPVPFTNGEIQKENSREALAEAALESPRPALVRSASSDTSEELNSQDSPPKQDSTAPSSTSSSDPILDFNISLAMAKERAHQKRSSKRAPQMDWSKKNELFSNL
UniProt Q9UPY5: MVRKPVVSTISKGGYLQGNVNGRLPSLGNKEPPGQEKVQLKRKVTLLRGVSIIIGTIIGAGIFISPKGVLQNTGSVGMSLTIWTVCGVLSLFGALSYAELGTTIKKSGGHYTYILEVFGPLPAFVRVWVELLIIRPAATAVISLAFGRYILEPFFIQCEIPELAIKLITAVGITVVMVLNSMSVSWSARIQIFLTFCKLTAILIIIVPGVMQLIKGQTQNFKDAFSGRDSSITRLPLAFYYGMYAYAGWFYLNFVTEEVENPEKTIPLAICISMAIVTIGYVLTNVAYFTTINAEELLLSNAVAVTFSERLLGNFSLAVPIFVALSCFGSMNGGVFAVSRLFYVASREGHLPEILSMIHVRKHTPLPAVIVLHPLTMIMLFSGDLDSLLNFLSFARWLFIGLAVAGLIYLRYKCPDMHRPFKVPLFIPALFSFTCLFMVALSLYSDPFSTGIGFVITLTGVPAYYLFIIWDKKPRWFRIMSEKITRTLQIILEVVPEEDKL
UniProt Q9Y619: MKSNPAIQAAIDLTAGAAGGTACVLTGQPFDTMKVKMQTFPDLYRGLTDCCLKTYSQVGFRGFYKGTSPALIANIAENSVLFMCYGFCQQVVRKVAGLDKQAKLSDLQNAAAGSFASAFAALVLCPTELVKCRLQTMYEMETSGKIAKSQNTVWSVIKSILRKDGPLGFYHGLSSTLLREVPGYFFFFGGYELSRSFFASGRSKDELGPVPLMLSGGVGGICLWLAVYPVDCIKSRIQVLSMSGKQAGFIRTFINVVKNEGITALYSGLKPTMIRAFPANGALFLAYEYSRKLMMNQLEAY
UniProt Q9ULF5: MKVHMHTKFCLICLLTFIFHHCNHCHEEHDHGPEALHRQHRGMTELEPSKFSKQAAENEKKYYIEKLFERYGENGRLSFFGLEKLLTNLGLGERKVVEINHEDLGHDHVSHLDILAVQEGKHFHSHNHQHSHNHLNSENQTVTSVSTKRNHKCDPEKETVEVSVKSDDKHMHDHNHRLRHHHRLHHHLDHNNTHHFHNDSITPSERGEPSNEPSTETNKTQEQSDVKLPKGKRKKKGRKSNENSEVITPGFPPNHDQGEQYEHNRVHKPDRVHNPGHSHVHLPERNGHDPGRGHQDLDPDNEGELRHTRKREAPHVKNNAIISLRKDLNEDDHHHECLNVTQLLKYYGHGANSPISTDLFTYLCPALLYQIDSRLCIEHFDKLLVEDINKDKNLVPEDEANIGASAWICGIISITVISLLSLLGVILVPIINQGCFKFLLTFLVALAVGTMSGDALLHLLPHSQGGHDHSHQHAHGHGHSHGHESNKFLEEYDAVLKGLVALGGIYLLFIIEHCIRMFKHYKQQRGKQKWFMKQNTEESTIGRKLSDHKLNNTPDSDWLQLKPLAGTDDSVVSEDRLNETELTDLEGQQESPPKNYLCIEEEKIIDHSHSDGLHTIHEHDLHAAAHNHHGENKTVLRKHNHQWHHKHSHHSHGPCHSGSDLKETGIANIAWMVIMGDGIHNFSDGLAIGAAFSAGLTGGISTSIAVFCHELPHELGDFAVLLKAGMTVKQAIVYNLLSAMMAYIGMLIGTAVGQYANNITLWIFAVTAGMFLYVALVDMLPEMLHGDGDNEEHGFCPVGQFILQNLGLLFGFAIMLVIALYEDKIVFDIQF
UniProt O00193: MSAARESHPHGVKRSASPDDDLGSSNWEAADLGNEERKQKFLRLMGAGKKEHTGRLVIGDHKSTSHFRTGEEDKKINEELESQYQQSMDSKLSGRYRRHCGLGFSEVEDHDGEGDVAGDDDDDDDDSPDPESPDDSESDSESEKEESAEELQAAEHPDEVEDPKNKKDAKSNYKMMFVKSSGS
UniProt Q8WU79: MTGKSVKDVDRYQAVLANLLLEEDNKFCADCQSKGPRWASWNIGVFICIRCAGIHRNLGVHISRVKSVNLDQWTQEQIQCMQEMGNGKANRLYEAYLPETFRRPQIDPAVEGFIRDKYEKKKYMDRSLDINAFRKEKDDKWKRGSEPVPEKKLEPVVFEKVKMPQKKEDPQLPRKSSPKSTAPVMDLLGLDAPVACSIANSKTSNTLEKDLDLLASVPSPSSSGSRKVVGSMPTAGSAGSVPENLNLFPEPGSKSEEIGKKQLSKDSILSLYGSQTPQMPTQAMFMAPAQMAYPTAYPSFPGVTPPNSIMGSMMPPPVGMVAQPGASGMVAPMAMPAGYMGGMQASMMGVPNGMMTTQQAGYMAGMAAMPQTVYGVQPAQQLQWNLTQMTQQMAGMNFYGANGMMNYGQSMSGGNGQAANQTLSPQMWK
UniProt P31641: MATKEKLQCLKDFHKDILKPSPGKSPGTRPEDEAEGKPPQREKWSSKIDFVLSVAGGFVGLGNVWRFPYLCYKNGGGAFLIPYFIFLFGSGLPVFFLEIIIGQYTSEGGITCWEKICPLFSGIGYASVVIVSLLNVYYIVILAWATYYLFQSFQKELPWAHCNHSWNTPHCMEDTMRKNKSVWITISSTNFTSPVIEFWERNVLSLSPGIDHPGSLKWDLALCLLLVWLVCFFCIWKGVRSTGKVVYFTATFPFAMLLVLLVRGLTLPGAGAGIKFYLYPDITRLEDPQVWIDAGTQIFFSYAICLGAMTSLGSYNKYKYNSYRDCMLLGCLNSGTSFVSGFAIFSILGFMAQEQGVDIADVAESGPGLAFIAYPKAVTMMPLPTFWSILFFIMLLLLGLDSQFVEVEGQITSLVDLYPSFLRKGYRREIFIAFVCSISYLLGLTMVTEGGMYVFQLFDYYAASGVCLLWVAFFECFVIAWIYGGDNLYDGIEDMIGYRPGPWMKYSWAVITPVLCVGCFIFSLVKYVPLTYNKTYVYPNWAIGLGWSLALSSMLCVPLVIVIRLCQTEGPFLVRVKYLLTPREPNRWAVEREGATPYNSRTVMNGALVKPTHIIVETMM
UniProt Q9H2D1: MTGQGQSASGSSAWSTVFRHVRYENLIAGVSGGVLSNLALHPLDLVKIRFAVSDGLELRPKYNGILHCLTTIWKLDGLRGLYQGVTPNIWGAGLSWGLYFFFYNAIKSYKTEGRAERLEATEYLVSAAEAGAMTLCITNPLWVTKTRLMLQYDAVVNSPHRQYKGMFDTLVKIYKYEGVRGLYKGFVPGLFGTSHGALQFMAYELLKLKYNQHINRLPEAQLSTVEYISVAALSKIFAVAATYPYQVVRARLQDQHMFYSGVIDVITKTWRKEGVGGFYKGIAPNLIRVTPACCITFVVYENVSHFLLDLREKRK

What follows are targets tested with O=C(O)c1ccc2c(c1)nc(Nc1cccc(Cl)c1)c1ccncc12 [silmitasertib] (assay: log2 fold change, soluble protein after heating vs DMSO (PISA); higher = thermal stabilisation; K562 lysate, 10 uM; active = over 0.2 and 3.5 SD of the protein, either way, in both replicates (recomputed)).
Outline: (§1)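 Pellets of K562 cells were dounce-homogenised in PBS pH 7.4 with 1 mM MgCl2, and the crude extract was held at 1 mg/mL protein for a 30 min treatment with 10 μM compound. Aliquots were heated for 3 min over 48°C-58°C and pooled before NP-40 was added to 0.5% at 4°C. The supernatant from 21,000xg for 90 min was quantified by TMTpro 16plex LC-MS/MS with channel sums equalised. Values are reported from duplicates as log-two fold change in thermal stability relative to solvent controls.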

log2 fold change, inactive:
SLC26A2 (UniProt P50443) -0.03
SLC2A3 (UniProt P11169) -0.012
SLC25A37 (UniProt Q9NYZ2) -0.125
SLC25A3 isoform 2 (UniProt Q00325) -0.02
SLC7A2 isoform 3 (UniProt P52569) -0.033
SLC25A12 (UniProt O75746) -0.008
SLC27A2 (UniProt O14975) 0.08
SLC9A6 isoform 2 (UniProt Q92581) -0.021
SLC39A3 (UniProt Q9BRY0) -0.025
SLC25A5 (UniProt P05141) -0.05
SLC38A2 (UniProt Q96QD8) -0.037
SLC35C1 (UniProt Q96A29) 0.042
SLC25A51 (UniProt Q9H1U9) -0.014
SLC25A17 (UniProt O43808) -0.026
SLC4A2 (UniProt P04920) 0.024
SLC7A5 (UniProt Q01650) -0.04

Each target was assayed with O=C1NC(=O)C(c2cnc3ccccn23)=C1c1cn2c3c(cc(F)cc13)CN(C(=O)N1CCCCC1)CC2 in the same assay as above.
Outline: as §1

log2 fold change, inactive:
SLC25A22 (UniProt Q9H936) -0.006
SLC25A10 isoform 2 (UniProt Q9UBX3) -0.061
SLC30A10 (UniProt Q6XR72) 0.031
SLC35A4 (UniProt L0R6Q1) 0.064
SLC27A4 (UniProt Q6P1M0) -0.002
SLC35A3 isoform 2 (UniProt Q9Y2D2) 0.019
SLC9A3R1 (UniProt O14745) -0.001
SLC4A7 isoform 7 (UniProt Q9Y6M7) 0.003
SLC7A11 (UniProt Q9UPY5) 0.072
SLC35B2 (UniProt Q8TB61) 0.001
SMAD4 (UniProt Q13485) 0.014
SLC43A3 isoform 2 (UniProt Q8NBI5) 0.022
SLC25A15 (UniProt Q9Y619) -0.058
SLC39A10 (UniProt Q9ULF5) -0.051
SMAP (UniProt O00193) -0.028
SLC35B1 isoform 2 (UniProt P78383) 0.073
SMAD5 (UniProt Q99717) -0.09
SLC35B4 (UniProt Q969S0) -0.047
SLC25A21 (UniProt Q9BQT8) -0.033
SMAP2 (UniProt Q8WU79) -0.04
SLC6A6 (UniProt P31641) 0.044
SLC25A32 (UniProt Q9H2D1) 0.046
SLC26A2 (UniProt P50443) -0.045
SLC2A3 (UniProt P11169) -0.061
SLC25A37 (UniProt Q9NYZ2) 0.003
SLC25A3 isoform 2 (UniProt Q00325) 0.019
SLC7A2 isoform 3 (UniProt P52569) 0.039
SLC25A12 (UniProt O75746) -0.008
SLC27A2 (UniProt O14975) 0.367
SLC9A6 isoform 2 (UniProt Q92581) -0.02
SLC39A3 (UniProt Q9BRY0) 0.021
SLC25A5 (UniProt P05141) 0.017
SLC38A2 (UniProt Q96QD8) -0.042
SLC35C1 (UniProt Q96A29) 0.036
SLC25A51 (UniProt Q9H1U9) 0.077
SLC25A17 (UniProt O43808) -0.033
SLC4A2 (UniProt P04920) -0.021
SLC7A5 (UniProt Q01650) 0.013
